In patent publication US9458203B2, “Integrin-blocking polypeptides and uses thereof” (priority 2011, dated 2016):
Where two headings read alike, the source gives them in different places. Part of at least one peptide drawing is inferred or uncertain, most often the ends. Some entries repeat one wording, which the source may state once for all of them. Ends that are not written are not given here.

Amino acid sequences for entries named in this document (tags omitted). Residues count along the entry.
UniProt P05106, 27-788: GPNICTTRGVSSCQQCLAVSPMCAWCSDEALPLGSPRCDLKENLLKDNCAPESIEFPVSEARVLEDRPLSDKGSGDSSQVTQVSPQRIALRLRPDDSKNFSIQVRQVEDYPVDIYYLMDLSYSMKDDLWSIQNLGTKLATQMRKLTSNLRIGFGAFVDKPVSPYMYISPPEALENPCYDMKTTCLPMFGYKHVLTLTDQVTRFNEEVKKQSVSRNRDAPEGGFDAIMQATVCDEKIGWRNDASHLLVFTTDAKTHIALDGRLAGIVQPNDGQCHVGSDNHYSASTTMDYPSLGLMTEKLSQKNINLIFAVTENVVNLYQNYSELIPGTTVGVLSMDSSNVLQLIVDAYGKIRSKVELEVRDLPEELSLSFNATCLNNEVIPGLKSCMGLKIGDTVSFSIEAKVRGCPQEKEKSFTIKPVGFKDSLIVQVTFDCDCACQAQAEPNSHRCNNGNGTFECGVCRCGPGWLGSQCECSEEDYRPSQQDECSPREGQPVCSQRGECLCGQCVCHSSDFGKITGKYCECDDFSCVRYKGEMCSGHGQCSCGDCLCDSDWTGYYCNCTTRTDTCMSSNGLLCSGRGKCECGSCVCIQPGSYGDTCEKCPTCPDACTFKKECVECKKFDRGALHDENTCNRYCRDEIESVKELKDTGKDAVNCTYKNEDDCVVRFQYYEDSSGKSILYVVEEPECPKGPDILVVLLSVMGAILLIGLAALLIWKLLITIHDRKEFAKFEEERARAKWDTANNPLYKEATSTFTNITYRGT
UniProt P06756, 891-1048 partner limits assumed: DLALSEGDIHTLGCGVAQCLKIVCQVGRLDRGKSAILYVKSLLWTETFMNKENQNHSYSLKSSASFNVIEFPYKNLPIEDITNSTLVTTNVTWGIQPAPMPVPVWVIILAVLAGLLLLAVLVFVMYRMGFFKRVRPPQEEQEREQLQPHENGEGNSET
UniProt P06756, 31-889 limits assumed: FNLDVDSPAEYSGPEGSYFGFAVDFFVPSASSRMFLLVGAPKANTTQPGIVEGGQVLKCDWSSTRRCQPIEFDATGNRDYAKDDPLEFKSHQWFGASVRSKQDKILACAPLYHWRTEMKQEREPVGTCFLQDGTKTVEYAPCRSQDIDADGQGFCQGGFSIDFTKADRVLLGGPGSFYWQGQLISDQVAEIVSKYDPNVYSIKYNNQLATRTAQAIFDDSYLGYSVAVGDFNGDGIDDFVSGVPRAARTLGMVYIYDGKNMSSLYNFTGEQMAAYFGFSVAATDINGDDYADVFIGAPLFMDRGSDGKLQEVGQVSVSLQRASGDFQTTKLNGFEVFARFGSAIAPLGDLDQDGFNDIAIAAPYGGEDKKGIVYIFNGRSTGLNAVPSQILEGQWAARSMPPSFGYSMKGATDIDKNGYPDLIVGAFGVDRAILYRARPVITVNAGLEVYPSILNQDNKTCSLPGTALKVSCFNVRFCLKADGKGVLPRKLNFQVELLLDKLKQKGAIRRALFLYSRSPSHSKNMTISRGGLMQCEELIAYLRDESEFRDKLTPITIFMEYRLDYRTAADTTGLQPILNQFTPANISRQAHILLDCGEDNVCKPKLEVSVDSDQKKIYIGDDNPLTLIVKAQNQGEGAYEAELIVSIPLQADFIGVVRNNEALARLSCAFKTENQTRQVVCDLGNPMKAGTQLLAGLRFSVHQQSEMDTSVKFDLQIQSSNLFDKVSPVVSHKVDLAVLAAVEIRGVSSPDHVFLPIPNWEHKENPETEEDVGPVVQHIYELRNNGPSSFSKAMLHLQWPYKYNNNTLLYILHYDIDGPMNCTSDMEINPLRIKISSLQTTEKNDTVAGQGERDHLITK
UniProt P08648, 895-1049 partner limits assumed: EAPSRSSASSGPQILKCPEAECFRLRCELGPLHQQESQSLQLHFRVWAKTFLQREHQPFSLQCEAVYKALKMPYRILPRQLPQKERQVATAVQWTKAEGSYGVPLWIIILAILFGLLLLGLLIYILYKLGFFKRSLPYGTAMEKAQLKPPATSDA
UniProt P08648, 42-894 limits assumed: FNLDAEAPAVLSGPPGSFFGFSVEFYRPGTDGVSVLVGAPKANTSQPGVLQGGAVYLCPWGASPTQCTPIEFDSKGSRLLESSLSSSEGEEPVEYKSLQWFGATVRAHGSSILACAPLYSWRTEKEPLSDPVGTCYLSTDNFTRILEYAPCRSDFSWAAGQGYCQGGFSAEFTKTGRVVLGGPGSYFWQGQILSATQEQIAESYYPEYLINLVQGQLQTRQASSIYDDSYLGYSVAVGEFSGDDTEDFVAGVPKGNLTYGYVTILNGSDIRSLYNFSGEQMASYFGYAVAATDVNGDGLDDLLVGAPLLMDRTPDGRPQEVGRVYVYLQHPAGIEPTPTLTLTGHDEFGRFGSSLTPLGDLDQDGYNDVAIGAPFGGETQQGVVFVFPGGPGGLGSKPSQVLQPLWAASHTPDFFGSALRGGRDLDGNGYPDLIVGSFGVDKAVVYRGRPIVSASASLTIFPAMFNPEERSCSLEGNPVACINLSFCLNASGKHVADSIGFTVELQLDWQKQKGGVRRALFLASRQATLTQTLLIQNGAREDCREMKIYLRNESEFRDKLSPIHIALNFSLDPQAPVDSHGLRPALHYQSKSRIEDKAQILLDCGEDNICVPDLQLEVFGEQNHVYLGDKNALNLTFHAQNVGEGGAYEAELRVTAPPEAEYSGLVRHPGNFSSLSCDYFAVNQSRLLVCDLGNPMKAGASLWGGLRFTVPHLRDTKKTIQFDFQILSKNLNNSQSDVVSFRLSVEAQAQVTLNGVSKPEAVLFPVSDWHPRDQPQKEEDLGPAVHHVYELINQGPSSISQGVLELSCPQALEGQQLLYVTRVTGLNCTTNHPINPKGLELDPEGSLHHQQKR

Legend:
integrin αvβ3 = molecular target: T1, integrin αvβ3 (Homo sapiens, UniProt P05106+P06756); assay: flow cytometry: combination of FITC-labeled polypeptide with target on Bel-7402 cells; format: binding
T1 construct: integrin αvβ3 was expressed on the surface of Bel-7402 cells; endogenous in cells; host or cells: Bel-7402 cells

integrin α5β1 = molecular target: T2, integrin α5β1 (Homo sapiens, UniProt P05556+P08648); assay: as above; format: binding; conditions: when adding in integrin α5β1 antibody
T2 construct: culturing Bel-7402 cells in a culture flask to 80% confluence; endogenous in cells; host or cells: Bel-7402 cells

[1] = tested on: human umbilical vein endothelial cells (HUVECs); assay: inhibition of migration of HUVECs (transwell); format: cell-based; conditions: 24 h
[2] = tested on: human umbilical vein endothelial cells (HUVECs); assay: inhibition of capillary formation of HUVECs (matrigel); format: cell-based
Procedure: Thawing 10 mg/mL matrigel (BD Company, USA) stocked at −20° C. overnight at 4° C., diluting it with HUVEC culture medium at the ratio of 1:1; smearing 30 μl of the solution on a 96-well plate (Greiner Company, USA), placing the plate at a 37 incubator for 1 h of aggregation. Digesting the HUVECs with 0.2% ethylene diamine tetraacetic acid (EDTA) when they reached the logarithmic phase; collecting the cells and washing them with PBS buffer twice, and then resuspending the cells with blank HUVEC culture medium. Counting the cells under a microscope, adjusting the cell concentration to 1×10^5 cells/ml. Preparing the testing solution for all groups, and diluting with blank HUVEC culture medium to 100 μl. Seeding the cells into the 96-well plate, 100 μl for each well, adding also the testing solution into each well and incubating the cells in 5% CO2 at 37° C. After 6 h, 12 h, 24 h, 36 h, 48 h, 60 h of incubation, randomly choosing 5 FOVs for each dose, photographing and counting the cells; calculating the number of capillary structures at different doses and analyzing the inhibition effect of polypeptide II and polypeptide III on HUVECs' differentiating into capillaries. The inhibition rate of capillary formation was calculated in accordance with the following formula: […]
wherein Ntest is the number of capillary structures in the test groups while Ncontrol is the number of capillary structures in the negative control group.

human colon cancer HT-29 = format: in vivo, nude mice; conditions: for tumor inhibition rate / tumor weight: daily, tail vein injection; for inhibition rate on tumor: tail vein daily
[3] = tested on: human thyroid cancer SW-579; format: in vivo, nude mice; conditions: for tumor inhibition rate / tumor weight: daily, tail vein injection; for inhibition rate on tumor: tail vein daily
human renal cancer A498 = format: in vivo, nude mice; conditions: for tumor inhibition rate / tumor weight: daily, tail vein injection; for inhibition rate on tumor: tail vein daily
[4] = tested on: human ovarian cancer SK-OV-3; format: in vivo, nude mice; conditions: for tumor inhibition rate / tumor weight: daily, tail vein injection; for inhibition rate on tumor: tail vein daily
[5] = tested on: collagen-induced arthritis; assay: collagen-induced arthritis (CIA) mouse models; format: in vivo, DBA/1 mice; conditions: for in vivo immunoprotective / therapeutic effect on CIA mouse models: all doses, hypodermic twice a day, 10 days; for swelling of joints / swelling of paws / clinical scoring: CIA mice; for clinical scoring: joint score, 16 as the highest point
human lung cancer H460 = conditions: tail vein daily
[6] = tested on: human endometrial cancer HHUA; conditions: tail vein daily
[7] = tested on: human breast cancer MDA-MB-231; assay: heterotransplanted human breast cancer MDA-MB-231 in nude mice; conditions: tail vein once a day, 14 days
[8] = high-, medium- and low-dose groups, p<0.01

For “FQPVLHLVALNSPLSGGMRGIRGADFQCFQQARAVGLAGTFRAGGGGRGD [polypeptide III]”, the “fluorescence intensity of polypeptide labeled with FITC” value (“fluorescence intensity” for short) (integrin αvβ3; before adding in the antibody) was 82.4%, the “fluorescence intensity” value (integrin αvβ3; when adding in integrin αvβ3 antibody) was 11.3% and the “fluorescence intensity” value (integrin α5β1) was 25.9%. For the same sequence, the MI rate ([1]; 0.13 μg/ml) was 23.08%, the “number of migrated cells (mean ± SD)” value ([1]; 0.13 μg/ml) was 787.1 ± 46.3 and the MI rate ([1]; 0.25 μg/ml) was 41.78%. The “number of migrated cells (mean ± SD)” value ([1]; 0.25 μg/ml) was 595.7 ± 29.3, the MI rate ([1]; 0.5 μg/ml) was 52.04% and the “number of migrated cells (mean ± SD)” value ([1]; 0.5 μg/ml) was 490.7 ± 17.1. For the same sequence, the MI rate ([1]; 1 μg/ml) was 76.78%, the “number of migrated cells (mean ± SD)” value ([1]; 1 μg/ml) was 237.6 ± 19.0 and the MI rate ([1]; 2 μg/ml) was 62.46%. For the same sequence, the “number of migrated cells (mean ± SD)” value ([1]; 2 μg/ml) was 384.1 ± 43.0, the MI rate ([1]; 4 μg/ml) was 52.86% and the “number of migrated cells (mean ± SD)” value ([1]; 4 μg/ml) was 482.3 ± 19.2. The “inhibition rate (%) of capillary formation” value (“inhibition rate (%)” for short) ([2]; 6 h, 0.25 μg/ml) was 19.02%, the “number of capillary structures (mean ± SD)” value ([2]; 6 h, 0.25 μg/ml) was 26.4 ± 1.9 and the “inhibition rate (%)” value ([2]; 6 h, 0.5 μg/ml) was 37.88%. For the same sequence, the “number of capillary structures (mean ± SD)” value ([2]; 6 h, 0.5 μg/ml) was 20.2 ± 2.3, the “inhibition rate (%)” value ([2]; 6 h, 1 μg/ml) was 66.26% and the “number of capillary structures (mean ± SD)” value ([2]; 6 h, 1 μg/ml) was 11.0 ± 1.0. The “inhibition rate (%)” value ([2]; 6 h, 2 μg/ml) was 67.28%, the “number of capillary structures (mean ± SD)” value ([2]; 6 h, 2 μg/ml) was 10.6 ± 2.8 and the “inhibition rate (%)” value ([2]; 12 h, 0.25 μg/ml) was 18.81%. For the same sequence, the “number of capillary structures (mean ± SD)” value ([2]; 12 h, 0.25 μg/ml) was 16.4 ± 1.5, the “inhibition rate (%)” value ([2]; 12 h, 0.5 μg/ml) was 27.39% and the “number of capillary structures (mean ± SD)” value ([2]; 12 h, 0.5 μg/ml) was 14.6 ± 2.0. The “inhibition rate (%)” value ([2]; 12 h, 1 μg/ml) was 57.10%, the “number of capillary structures (mean ± SD)” value ([2]; 12 h, 1 μg/ml) was 8.6 ± 1.5 and the “inhibition rate (%)” value ([2]; 12 h, 2 μg/ml) was 55.45%. The “number of capillary structures (mean ± SD)” value ([2]; 12 h, 2 μg/ml) was 9.0 ± 1.0, the “inhibition rates on HUVECs' differentiating into capillaries” value ([2]; at both medium and low doses) was “over 60%” and the tumor inhibition rate (human colon cancer HT-29; 0.375 mg/kg/time) was 85.62%. For the same sequence, the tumor weight (human colon cancer HT-29; 0.375 mg/kg/time) was 0.21 ± 0.06 g, the tumor inhibition rate (human colon cancer HT-29; 0.75 mg/kg/time) was 79.11% and the tumor weight (human colon cancer HT-29; 0.75 mg/kg/time) was 0.30 ± 0.09 g. The “inhibition rate on tumor” value (human colon cancer HT-29; high dose) was 79.11%, the “inhibition rate on tumor” value (human colon cancer HT-29; low dose) was 83.70% and the “inhibition rate on tumor” value (human colon cancer HT-29; medium dose) was 85.62%. It also gave a tumor inhibition rate ([3]; 0.1875 mg/kg/time) of 66.40%, a tumor weight ([3]; 0.1875 mg/kg/time) of 0.44 ± 0.09 g and a tumor inhibition rate ([3]; 0.375 mg/kg/time) of 70.58%. It also gave a tumor weight ([3]; 0.375 mg/kg/time) of 0.39 ± 0.08 g, a tumor inhibition rate ([3]; 0.75 mg/kg/time) of 63.38% and a tumor weight ([3]; 0.75 mg/kg/time) of 0.48 ± 0.14 g. For the same sequence, the “inhibition rate on tumor” value ([3]; high dose) was 63.38%, the “inhibition rate on tumor” value ([3]; low dose) was 66.40% and the “inhibition rate on tumor” value ([3]; medium dose) was 70.58%. The tumor inhibition rate (human renal cancer A498; 0.1875 mg/kg/time) was 70.74%, the tumor weight (human renal cancer A498; 0.1875 mg/kg/time) was 0.36 ± 0.10 g and the tumor inhibition rate (human renal cancer A498; 0.375 mg/kg/time) was 75.36%. It also gave a tumor weight (human renal cancer A498; 0.375 mg/kg/time) of 0.30 ± 0.07 g, a tumor inhibition rate (human renal cancer A498; 0.75 mg/kg/time) of 66.36% and a tumor weight (human renal cancer A498; 0.75 mg/kg/time) of 0.41 ± 0.12 g. The “inhibition rate on tumor” value (human renal cancer A498; high dose) was 66.36%, the “inhibition rate on tumor” value (human renal cancer A498; low dose) was 70.74% and the “inhibition rate on tumor” value (human renal cancer A498; medium dose) was 75.36%. It also gave a tumor inhibition rate ([4]; 0.1875 mg/kg/time) of 73.87%, a tumor weight ([4]; 0.1875 mg/kg/time) of 0.35 ± 0.09 g and a tumor inhibition rate ([4]; 0.375 mg/kg/time) of 76.63%. For the same sequence, the tumor weight ([4]; 0.375 mg/kg/time) was 0.31 ± 0.07 g, the tumor inhibition rate ([4]; 0.75 mg/kg/time) was 69.98% and the tumor weight ([4]; 0.75 mg/kg/time) was 0.40 ± 0.11 g. The “inhibition rate on tumor” value ([4]; high dose) was 69.98%, the “inhibition rate on tumor” value ([4]; low dose) was 73.87% and the “inhibition rate on tumor” value ([4]; medium dose) was 76.63%. For the same sequence, the “in vivo immunoprotective / therapeutic effect on CIA mouse models” value [5] was “have therapeutic effect”, the “in vivo immunoprotective / therapeutic effect on CIA mouse models” value ([5]; listed as Polypeptide III) was “presented in vivo immunoprotective effect” and the swelling of joints ([5]; dose 0.1 mg/kg) was 0.92 ± 0.27 mm. For the same sequence, the swelling of paws ([5]; dose 0.1 mg/kg) was 1.03 ± 0.21 mm, the clinical scoring ([5]; dose 0.1 mg/kg) was 9.73 ± 1.46 and the swelling of joints ([5]; dose 0.2 mg/kg) was 0.68 ± 0.19 mm. The swelling of paws ([5]; dose 0.2 mg/kg) was 0.85 ± 0.17 mm, the clinical scoring ([5]; dose 0.2 mg/kg) was 9.13 ± 1.37 and the swelling of joints ([5]; dose 0.4 mg/kg) was 1.05 ± 0.26 mm. The swelling of paws ([5]; dose 0.4 mg/kg) was 1.23 ± 0.25 mm, the clinical scoring ([5]; dose 0.4 mg/kg) was 10.41 ± 1.56 and the “joint scoring in contrast with model control group” value [5, 8] was “extremely lower”. For the same sequence, the “swelling degree of joints in contrast with model control group” value [5, 8] was “extremely significant difference”, the “swelling degree of paws in contrast with model control group” value [5, 8] was “extremely significant difference” and the tumor inhibition rate (human lung cancer H460; 0.1875 mg/kg/time) was 69.23%. The tumor weight (human lung cancer H460; 0.1875 mg/kg/time) was 0.27 ± 0.05 g, the tumor inhibition rate (human lung cancer H460; 0.375 mg/kg/time) was 74.42% and the tumor weight (human lung cancer H460; 0.375 mg/kg/time) was 0.23 ± 0.06 g. For the same sequence, the tumor inhibition rate (human lung cancer H460; 0.75 mg/kg/time) was 68.05%, the tumor weight (human lung cancer H460; 0.75 mg/kg/time) was 0.28 ± 0.11 g and the tumor inhibition rate ([6]; 0.1875 mg/kg/time) was 70.53%. The tumor weight ([6]; 0.1875 mg/kg/time) was 0.33 ± 0.07 g, the tumor inhibition rate ([6]; 0.375 mg/kg/time) was 73.21% and the tumor weight ([6]; 0.375 mg/kg/time) was 0.30 ± 0.06 g. It also gave a tumor inhibition rate ([6]; 0.75 mg/kg/time) of 66.67%, a tumor weight ([6]; 0.75 mg/kg/time) of 0.38 ± 0.10 g and a tumor inhibition rate ([7]; 0.1875 mg/kg/time) of 61.91%. It also gave a tumor weight ([7]; 0.1875 mg/kg/time) of 0.45 ± 0.15 g, a tumor inhibition rate ([7]; 0.375 mg/kg/time) of 72.86% and a tumor weight ([7]; 0.375 mg/kg/time) of 0.32 ± 0.09 g. It also gave a tumor inhibition rate ([7]; 0.75 mg/kg/time) of 58.82% and a tumor weight ([7]; 0.75 mg/kg/time) of 0.49 ± 0.17 g.
